# Measured values reported in the supplement of paper PMC10849652.
# Chains of the proteins cited; added tags and fusions are not shown. Lines headed by an entry give the natural chain unless they say otherwise; changes in a name come on top.
# UniProt Q9Y3A4: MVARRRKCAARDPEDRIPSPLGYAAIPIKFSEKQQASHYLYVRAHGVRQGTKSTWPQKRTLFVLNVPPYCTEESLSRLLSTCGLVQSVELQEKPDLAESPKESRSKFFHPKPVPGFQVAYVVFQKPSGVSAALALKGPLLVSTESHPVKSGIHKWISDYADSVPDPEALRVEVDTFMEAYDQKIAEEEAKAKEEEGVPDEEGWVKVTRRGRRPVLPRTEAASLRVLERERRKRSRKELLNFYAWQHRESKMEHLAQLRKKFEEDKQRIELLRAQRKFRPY
# UniProt P55735: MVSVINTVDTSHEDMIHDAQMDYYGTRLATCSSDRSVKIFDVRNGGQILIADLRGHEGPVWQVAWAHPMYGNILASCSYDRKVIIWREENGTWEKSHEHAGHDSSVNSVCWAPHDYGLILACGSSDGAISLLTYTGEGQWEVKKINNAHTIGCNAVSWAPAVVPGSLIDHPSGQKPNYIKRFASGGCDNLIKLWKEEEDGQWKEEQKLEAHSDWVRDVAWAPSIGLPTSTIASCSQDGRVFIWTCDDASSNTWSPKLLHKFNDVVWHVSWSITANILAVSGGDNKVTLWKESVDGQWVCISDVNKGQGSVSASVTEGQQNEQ
# UniProt O75056, whole entry, looked up: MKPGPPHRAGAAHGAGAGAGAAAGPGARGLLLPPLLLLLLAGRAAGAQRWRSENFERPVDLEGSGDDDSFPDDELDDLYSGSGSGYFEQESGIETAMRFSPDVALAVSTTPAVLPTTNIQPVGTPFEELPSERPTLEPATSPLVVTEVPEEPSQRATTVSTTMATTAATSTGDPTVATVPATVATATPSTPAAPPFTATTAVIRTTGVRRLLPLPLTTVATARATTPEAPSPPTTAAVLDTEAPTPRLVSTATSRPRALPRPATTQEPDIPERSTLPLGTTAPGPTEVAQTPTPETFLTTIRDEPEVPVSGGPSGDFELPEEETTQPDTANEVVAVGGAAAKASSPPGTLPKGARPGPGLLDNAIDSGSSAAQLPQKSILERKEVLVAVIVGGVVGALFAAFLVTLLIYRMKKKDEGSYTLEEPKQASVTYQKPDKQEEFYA
# UniProt Q8WVM8, whole entry, looked up: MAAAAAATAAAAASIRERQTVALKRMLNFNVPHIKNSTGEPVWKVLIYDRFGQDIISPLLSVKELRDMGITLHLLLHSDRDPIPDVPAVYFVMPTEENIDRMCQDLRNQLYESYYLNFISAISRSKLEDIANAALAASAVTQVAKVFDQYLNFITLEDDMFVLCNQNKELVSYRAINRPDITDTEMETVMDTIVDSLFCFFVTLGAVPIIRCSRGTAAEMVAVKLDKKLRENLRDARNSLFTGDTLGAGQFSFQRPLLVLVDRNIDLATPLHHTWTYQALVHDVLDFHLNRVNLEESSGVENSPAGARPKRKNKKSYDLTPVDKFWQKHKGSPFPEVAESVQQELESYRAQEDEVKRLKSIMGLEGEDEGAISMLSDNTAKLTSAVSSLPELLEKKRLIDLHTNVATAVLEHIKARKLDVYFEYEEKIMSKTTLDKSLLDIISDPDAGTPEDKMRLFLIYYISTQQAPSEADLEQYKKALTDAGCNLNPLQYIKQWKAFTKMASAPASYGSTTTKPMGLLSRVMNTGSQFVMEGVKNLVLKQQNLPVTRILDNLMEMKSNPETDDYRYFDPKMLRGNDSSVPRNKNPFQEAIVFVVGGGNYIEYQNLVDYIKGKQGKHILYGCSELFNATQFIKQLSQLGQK
# UniProt Q96GA7: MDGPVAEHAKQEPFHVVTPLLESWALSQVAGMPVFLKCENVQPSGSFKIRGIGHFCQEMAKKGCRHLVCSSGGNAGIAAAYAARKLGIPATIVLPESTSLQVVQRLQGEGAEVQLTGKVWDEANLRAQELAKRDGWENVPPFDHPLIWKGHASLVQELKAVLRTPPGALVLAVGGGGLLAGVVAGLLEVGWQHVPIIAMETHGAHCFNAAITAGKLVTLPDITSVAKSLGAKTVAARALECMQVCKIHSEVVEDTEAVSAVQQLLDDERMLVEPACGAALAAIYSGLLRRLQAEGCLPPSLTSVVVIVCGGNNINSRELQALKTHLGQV
# UniProt O95197: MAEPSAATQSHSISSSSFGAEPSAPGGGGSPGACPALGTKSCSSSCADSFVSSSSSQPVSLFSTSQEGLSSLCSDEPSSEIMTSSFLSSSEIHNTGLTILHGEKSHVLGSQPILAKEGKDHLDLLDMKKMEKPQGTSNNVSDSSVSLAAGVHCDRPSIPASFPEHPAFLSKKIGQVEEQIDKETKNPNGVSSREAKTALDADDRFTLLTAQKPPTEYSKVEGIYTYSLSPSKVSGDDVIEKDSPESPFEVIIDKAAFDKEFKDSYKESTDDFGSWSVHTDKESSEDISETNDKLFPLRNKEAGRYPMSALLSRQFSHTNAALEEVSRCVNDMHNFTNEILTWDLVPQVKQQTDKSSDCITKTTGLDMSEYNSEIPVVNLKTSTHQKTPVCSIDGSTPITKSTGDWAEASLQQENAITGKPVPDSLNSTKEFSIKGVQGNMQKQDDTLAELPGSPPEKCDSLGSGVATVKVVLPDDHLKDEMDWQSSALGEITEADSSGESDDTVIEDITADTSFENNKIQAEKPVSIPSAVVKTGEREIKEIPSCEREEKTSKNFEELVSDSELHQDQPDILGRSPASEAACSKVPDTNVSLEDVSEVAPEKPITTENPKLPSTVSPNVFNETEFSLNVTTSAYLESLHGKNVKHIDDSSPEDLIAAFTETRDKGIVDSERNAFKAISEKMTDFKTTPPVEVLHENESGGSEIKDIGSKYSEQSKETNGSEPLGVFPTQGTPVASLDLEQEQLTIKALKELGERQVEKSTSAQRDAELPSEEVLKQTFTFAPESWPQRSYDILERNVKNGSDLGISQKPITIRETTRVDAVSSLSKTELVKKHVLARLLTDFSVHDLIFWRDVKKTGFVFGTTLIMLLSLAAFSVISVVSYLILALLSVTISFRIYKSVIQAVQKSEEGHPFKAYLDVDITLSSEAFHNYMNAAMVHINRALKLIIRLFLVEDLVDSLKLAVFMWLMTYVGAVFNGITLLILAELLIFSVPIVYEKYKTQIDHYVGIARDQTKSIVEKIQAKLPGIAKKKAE
# This is one part of the list.
# Compound: c1cn2cc(-c3ccc4cn[nH]c4c3)nc(Nc3ccc(N4CCOCC4)cc3)c2n1 [entospletinib]
# Test: log2 fold change, soluble protein after heating vs DMSO (PISA); higher = thermal stabilisation; K562 cells, 10 uM, 30 min; active = over 0.2 and 3.5 SD of the protein, either way, in both replicates (recomputed)
# How it was run: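 Values are thermal stability changes relative to control samples and are taken from duplicates. They are stated as log2 fold changes. Before quantification by TMTpro 16plex LC-MS/MS with equalised channel sums, K562 cells at 2×10^6 cells/mL were treated with 10 μM compound for 30 min, heated in aliquots for 3 min across 48°C-58°C, pooled, extracted in PBS with 0.5% NP-40 at 4°C, and centrifuged at 21,000xg for 90 min to give the soluble supernatant.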
row,Target,log2 fold change
1,RRP7A (UniProt Q9Y3A4),inactive: 0.079
2,SEC13 isoform 3 (UniProt P55735),inactive: 0.013
3,SDAD1 (UniProt Q9NVU7),inactive: -0.137
4,SDC3 (UniProt O75056),active: -0.853
5,SCFD1 (UniProt Q8WVM8),inactive: -0.015
6,SDSL (UniProt Q96GA7),inactive: -0.018
7,RTN3 (UniProt O95197),inactive: -0.055
8,"SDHB, A0A087WWT1",inactive: 0.055
